Results: the supplement of paper PMC10849652
The list shows a part of the results.

Chains of the proteins cited; added tags and fusions are not shown. Lines headed by an entry give the natural chain unless they say otherwise; changes in a name come on top.
UniProt Q16222: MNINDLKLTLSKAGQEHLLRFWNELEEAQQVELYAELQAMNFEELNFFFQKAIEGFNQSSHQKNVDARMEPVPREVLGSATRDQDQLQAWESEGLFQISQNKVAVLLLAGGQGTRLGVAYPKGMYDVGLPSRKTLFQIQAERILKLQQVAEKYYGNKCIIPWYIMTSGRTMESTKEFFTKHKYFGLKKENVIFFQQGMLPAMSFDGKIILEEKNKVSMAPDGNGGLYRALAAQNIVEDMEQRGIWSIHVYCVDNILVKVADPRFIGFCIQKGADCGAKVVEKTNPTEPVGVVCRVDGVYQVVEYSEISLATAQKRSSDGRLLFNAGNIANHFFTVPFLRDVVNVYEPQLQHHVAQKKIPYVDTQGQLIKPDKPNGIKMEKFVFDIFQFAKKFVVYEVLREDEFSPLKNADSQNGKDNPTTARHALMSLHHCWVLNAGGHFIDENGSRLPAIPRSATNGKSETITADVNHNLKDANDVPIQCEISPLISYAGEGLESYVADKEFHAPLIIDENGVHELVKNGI
UniProt Q9GZZ9, whole entry, looked up: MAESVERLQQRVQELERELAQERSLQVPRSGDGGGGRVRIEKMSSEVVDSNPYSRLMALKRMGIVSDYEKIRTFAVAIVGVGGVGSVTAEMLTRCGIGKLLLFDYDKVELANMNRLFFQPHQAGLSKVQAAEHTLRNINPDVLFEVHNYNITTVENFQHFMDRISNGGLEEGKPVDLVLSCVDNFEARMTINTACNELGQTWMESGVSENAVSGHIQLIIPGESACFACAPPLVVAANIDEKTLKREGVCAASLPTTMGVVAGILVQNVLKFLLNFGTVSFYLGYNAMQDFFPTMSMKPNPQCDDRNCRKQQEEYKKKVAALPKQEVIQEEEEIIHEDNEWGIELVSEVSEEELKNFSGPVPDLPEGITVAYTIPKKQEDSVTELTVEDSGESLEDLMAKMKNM
UniProt P49459, whole entry, looked up: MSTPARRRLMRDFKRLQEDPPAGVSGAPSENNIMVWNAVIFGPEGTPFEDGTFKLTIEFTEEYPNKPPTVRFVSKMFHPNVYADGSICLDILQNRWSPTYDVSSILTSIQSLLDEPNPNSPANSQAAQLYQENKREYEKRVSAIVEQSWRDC
UniProt Q9GZX9: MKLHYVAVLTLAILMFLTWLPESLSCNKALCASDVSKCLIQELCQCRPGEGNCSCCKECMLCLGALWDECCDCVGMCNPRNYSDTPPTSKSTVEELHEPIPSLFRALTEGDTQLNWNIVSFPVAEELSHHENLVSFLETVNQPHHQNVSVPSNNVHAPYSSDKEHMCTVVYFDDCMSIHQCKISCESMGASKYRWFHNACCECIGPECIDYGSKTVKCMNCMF
UniProt Q8NBM4: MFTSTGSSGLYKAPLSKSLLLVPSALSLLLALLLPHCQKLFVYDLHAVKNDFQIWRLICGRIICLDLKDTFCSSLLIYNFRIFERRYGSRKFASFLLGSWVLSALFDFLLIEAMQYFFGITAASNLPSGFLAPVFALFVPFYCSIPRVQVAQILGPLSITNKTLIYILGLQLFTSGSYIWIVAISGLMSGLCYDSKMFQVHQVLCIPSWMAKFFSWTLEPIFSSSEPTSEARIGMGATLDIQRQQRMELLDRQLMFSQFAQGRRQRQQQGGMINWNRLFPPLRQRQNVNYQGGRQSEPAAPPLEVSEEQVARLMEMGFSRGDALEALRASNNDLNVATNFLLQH
UniProt P68036, whole entry, looked up: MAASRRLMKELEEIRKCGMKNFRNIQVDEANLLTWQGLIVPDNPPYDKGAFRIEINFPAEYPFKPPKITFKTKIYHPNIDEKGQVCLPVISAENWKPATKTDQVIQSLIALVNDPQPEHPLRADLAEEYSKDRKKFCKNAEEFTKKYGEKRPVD
UniProt Q9NZ09: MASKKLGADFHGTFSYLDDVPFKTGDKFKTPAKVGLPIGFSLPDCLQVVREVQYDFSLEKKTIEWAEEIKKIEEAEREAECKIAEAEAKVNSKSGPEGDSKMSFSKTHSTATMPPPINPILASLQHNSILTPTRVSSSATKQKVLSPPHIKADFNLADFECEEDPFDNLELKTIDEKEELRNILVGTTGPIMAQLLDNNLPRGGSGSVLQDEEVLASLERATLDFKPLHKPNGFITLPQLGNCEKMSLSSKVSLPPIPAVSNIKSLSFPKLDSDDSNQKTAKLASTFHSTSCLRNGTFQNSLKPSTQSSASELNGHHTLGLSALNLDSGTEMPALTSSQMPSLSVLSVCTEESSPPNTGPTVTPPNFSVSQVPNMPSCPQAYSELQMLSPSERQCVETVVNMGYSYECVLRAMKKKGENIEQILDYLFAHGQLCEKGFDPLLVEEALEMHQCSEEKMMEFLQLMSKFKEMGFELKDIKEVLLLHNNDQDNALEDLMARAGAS
UniProt Q96AE7: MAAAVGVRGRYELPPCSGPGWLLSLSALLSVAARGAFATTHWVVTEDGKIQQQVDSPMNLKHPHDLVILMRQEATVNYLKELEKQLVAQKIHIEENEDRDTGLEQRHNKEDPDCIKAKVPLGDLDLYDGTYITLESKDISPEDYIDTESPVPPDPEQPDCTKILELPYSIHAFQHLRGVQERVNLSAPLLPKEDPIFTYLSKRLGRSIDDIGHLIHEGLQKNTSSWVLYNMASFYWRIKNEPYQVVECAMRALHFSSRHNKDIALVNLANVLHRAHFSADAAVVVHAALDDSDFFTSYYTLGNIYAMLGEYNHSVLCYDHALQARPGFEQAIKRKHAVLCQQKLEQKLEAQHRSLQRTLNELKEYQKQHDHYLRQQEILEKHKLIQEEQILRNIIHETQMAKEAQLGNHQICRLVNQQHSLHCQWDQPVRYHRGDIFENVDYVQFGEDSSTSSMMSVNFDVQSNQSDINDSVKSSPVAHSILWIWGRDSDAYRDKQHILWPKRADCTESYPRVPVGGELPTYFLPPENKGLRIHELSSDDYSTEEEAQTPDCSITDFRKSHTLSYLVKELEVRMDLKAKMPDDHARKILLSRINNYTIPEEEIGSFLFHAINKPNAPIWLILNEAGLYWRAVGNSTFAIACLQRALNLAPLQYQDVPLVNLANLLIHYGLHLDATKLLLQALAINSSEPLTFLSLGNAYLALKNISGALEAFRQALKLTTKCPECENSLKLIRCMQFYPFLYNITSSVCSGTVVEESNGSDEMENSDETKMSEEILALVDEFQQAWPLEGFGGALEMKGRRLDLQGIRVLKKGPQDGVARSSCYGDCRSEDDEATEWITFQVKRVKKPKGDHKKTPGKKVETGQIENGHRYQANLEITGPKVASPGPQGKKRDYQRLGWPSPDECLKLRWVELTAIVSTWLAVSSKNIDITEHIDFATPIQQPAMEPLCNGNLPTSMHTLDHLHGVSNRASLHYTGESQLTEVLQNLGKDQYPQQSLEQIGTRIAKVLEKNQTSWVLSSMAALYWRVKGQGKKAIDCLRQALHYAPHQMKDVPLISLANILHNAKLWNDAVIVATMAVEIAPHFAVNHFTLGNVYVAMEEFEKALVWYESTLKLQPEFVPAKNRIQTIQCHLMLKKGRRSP
UniProt Q9BSJ2, whole entry, looked up: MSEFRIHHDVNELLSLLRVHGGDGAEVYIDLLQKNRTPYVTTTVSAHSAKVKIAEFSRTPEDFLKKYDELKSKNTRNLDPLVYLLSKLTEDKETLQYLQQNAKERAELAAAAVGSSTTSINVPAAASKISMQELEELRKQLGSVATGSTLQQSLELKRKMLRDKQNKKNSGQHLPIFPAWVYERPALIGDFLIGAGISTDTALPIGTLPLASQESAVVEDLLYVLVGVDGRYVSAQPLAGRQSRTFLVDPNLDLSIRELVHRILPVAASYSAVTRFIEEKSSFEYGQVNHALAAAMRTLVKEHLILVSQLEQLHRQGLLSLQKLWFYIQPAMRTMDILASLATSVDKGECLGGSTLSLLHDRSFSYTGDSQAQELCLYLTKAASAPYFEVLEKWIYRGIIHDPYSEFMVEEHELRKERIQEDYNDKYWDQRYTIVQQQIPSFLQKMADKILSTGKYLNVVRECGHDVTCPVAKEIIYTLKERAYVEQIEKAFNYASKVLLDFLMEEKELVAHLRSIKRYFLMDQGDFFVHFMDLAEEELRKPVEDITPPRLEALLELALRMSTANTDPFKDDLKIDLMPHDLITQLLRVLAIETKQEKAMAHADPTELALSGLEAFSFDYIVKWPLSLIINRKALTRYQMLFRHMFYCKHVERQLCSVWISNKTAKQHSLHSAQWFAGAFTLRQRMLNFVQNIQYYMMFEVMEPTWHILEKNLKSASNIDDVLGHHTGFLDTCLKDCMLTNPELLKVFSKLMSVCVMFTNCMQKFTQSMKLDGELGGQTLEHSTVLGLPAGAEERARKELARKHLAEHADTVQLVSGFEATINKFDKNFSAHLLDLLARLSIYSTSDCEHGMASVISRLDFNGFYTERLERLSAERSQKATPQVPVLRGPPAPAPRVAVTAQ
UniProt Q5JXB2: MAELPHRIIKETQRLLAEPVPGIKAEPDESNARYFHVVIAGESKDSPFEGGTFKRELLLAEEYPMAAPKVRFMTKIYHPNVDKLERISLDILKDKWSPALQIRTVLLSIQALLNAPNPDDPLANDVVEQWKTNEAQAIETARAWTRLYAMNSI
UniProt Q9UJT0: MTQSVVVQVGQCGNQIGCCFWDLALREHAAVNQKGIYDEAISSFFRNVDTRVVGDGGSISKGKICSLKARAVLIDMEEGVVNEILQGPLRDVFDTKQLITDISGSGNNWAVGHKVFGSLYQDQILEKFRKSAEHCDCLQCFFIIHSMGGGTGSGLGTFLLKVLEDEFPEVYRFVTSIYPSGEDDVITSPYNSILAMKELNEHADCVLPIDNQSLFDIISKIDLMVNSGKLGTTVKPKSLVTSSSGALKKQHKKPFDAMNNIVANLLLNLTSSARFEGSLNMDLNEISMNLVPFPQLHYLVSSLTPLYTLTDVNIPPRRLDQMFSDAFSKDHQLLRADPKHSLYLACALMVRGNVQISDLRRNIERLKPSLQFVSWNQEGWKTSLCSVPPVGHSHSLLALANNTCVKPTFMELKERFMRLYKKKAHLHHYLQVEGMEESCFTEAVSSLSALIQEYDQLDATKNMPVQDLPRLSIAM
UniProt Q9BUF5, whole entry, looked up: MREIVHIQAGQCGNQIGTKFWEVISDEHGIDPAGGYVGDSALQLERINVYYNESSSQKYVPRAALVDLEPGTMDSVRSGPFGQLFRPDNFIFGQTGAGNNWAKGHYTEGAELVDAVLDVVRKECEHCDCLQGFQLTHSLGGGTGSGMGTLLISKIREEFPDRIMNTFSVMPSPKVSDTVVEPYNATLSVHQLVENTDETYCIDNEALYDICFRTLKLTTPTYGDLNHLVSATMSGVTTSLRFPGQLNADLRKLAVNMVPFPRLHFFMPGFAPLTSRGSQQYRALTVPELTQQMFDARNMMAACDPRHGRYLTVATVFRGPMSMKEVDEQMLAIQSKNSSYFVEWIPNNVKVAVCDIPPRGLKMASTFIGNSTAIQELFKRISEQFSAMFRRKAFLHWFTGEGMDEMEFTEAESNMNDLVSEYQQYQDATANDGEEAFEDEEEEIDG
UniProt Q6NXR4: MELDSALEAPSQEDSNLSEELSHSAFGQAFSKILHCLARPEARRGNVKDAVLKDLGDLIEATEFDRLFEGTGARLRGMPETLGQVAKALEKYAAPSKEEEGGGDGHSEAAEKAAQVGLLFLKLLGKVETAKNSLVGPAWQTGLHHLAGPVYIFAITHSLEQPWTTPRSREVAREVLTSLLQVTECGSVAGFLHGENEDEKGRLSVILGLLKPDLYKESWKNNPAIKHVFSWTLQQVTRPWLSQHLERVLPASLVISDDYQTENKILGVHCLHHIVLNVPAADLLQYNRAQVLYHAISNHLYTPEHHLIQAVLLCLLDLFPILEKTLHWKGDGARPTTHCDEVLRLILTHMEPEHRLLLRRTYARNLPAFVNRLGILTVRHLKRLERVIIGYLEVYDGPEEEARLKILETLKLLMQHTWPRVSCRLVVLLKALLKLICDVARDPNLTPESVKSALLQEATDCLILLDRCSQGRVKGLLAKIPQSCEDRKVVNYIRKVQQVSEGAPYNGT
UniProt Q16881, whole entry, looked up: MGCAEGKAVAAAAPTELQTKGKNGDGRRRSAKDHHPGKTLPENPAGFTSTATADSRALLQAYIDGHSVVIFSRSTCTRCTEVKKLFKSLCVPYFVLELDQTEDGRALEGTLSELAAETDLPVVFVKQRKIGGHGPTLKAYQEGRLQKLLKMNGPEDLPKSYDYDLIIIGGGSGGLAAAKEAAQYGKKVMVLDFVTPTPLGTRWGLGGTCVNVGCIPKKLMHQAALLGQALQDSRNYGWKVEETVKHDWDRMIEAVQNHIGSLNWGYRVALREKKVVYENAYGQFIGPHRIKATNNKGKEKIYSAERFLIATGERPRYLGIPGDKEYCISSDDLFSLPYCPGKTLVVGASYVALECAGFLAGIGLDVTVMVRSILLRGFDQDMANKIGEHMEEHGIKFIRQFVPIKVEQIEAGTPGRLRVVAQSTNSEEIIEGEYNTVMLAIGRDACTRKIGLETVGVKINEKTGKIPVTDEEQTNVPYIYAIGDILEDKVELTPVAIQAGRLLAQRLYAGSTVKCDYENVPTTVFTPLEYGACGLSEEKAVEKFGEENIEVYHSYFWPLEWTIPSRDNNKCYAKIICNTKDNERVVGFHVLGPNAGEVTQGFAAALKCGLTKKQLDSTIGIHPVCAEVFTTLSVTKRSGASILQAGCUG

What was measured:
Assay in all cases: log2 fold change, soluble protein after heating vs DMSO (PISA); higher = thermal stabilisation; K562 cells, 10 uM, 30 min; active = over 0.2 and 3.5 SD of the protein, either way, in both replicates (recomputed)
[1] = compound: NC(=O)Nc1cc(-c2cccc(F)c2)sc1C(=O)N[C@H]1CCCNC1
Procedure, shortened: (§1)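 K562 cells at 2×10^6 cells/mL were exposed to 10 μM compound for 30 min, then aliquots were heated for 3 min across 48°C-58°C, pooled, and extracted in PBS containing 0.5% NP-40 at 4°C. The supernatant after 21,000xg for 90 min was taken as soluble protein and measured by TMTpro 16plex LC-MS/MS with channel sums equalised. Thermal stability is reported relative to control samples, with values from duplicates. Fold changes are given on a log2 scale.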

[2] = compound: NC(=O)c1cnc(N[C@@H]2CCCC[C@@H]2N)nc1Nc1cccc(-n2nccn2)c1
Procedure, shortened: as §1

[3] = compound: NC1(c2ccc(-c3nc4ccn5c(=O)[nH]nc5c4cc3-c3ccccc3)cc2)CCC1
Procedure, shortened: as §1

[4] = compound: NCC(=O)Nc1ccc(-n2nc(C(F)(F)F)cc2-c2ccc3c(ccc4ccccc43)c2)cc1
Procedure, shortened: as §1

entinostat = compound: Nc1ccccc1NC(=O)c1ccc(CNC(=O)OCc2cccnc2)cc1 [entinostat]
Procedure, shortened: as §1

vorinostat = compound: O=C(CCCCCCC(=O)Nc1ccccc1)NO [vorinostat]
Procedure, shortened: as §1

citarinostat = compound: O=C(CCCCCCNC(=O)c1cnc(N(c2ccccc2)c2ccccc2Cl)nc1)NO [citarinostat]
Procedure, shortened: as §1

silmitasertib = compound: O=C(O)c1ccc2c(c1)nc(Nc1cccc(Cl)c1)c1ccncc12 [silmitasertib]
Procedure, shortened: as §1

[5] = compound: O=C1NC(=O)C(c2cnc3ccccn23)=C1c1cn2c3c(cc(F)cc13)CN(C(=O)N1CCCCC1)CC2
Procedure, shortened: as §1

[6] = compound: c1cc(OCCN2CCCCC2)cc(-c2n[nH]c3ccc(-c4nnc[nH]4)cc23)c1
Procedure, shortened: as §1

Target	log2 fold change [1]	log2 fold change [2]	log2 fold change [3]	log2 fold change [4]	log2 fold change (entinostat)	log2 fold change (vorinostat)	log2 fold change (citarinostat)	log2 fold change (silmitasertib)	log2 fold change [5]	log2 fold change [6]
UAP1 (UniProt Q16222)	inactive: -0.043	inactive: -0.002	inactive: -0.035	inactive: -0.003	inactive: -0.016	inactive: 0.034	inactive: 0.001	inactive: -0.079	inactive: -0.024	inactive: -0.01
UBA5 (UniProt Q9GZZ9)	inactive: -0.013	inactive: -0.078	inactive: -0.092	inactive: -0.009	inactive: -0.01	inactive: -0.025	inactive: 0.004	inactive: -0.043	inactive: 0.012	inactive: -0.074
UBE2A (UniProt P49459)	inactive: -0.11	inactive: 0.021	inactive: -0.079	inactive: -0.037	inactive: -0.019	inactive: -0.008	inactive: 0.004	inactive: -0.076	inactive: -0.094	inactive: 0.071
TWSG1 (UniProt Q9GZX9)	inactive: 0.001	inactive: 0.029	inactive: -0.007	inactive: 0.013	inactive: -0.09	inactive: -0.02	inactive: 0.049	inactive: 0.002	inactive: -0.113	inactive: 0.032
UBAC2 (UniProt Q8NBM4)	inactive: -0.008	inactive: 0.007	inactive: -0.059	inactive: 0.107	inactive: 0.068	inactive: 0.069	inactive: 0.032	inactive: 0.055	inactive: 0.077	inactive: 0.002
UBE2L3 isoform 3 (UniProt P68036)	inactive: -0.033	inactive: 0.013	inactive: 0.004	inactive: 0.018	inactive: 0	inactive: 0.002	inactive: 0.012	inactive: -0.043	inactive: -0.038	inactive: 0.001
UBAP1 isoform 4 (UniProt Q9NZ09)	inactive: -0.035	inactive: -0.005	inactive: -0.052	inactive: 0.002	inactive: -0.027	inactive: -0.019	inactive: 0.193	inactive: 0.064	inactive: -0.032	inactive: -0.049
UBA6	inactive: -0.048	inactive: -0.065	inactive: -0.14	inactive: -0.047	inactive: 0.05	inactive: 0.011	inactive: 0.052	inactive: -0.004	inactive: -0.046	inactive: -0.004
TXNRD2 (UniProt Q9NNW7)	inactive: 0.034	inactive: -0.005	inactive: 0.002	inactive: -0.032	inactive: 0.009	inactive: 0.011	inactive: 0.125	inactive: 0.033	inactive: 0.04	inactive: -0.01
TYW1 (UniProt Q9NV66)	inactive: -0.022	inactive: 0.05	inactive: 0.004	inactive: 0.013	inactive: 0.028	inactive: -0.056	inactive: 0.053	inactive: 0.039	inactive: -0.141	inactive: -0.007
UBA52 (UniProt P62987)	inactive: 0.067	inactive: 0.158	inactive: 0.366	inactive: 0.178	inactive: 0	inactive: 0.029	inactive: -0.112	inactive: 0.158	inactive: 0.246	inactive: -0.216
TTC17 (UniProt Q96AE7)	inactive: 0.012	inactive: -0.001	inactive: 0.017	inactive: -0.004	inactive: -0.039	inactive: 0.043	inactive: 0.028	inactive: 0	inactive: 0.066	inactive: -0.106
UBE2Q1 (UniProt Q7Z7E8)	inactive: -0.01	inactive: -0.059	inactive: -0.084	inactive: -0.012	inactive: 0.03	inactive: 0.084	inactive: 0.029	inactive: 0.074	inactive: -0.035	inactive: -0.035
TXNDC5 (UniProt Q8NBS9)	inactive: -0.006	inactive: 0.042	inactive: 0.011	inactive: 0.05	inactive: 0.002	inactive: -0.054	inactive: 0.016	inactive: 0.006	inactive: -0.039	inactive: 0.041
UBAP2L isoform 1 (UniProt Q14157)	inactive: 0.071	inactive: 0.076	inactive: -0.064	inactive: 0.039	inactive: -0.043	inactive: 0.041	inactive: -0.022	inactive: -0.031	inactive: -0.012	inactive: 0.03
TUBGCP2 isoform 4 (UniProt Q9BSJ2)	inactive: -0.008	inactive: -0.019	inactive: -0.038	inactive: 0.04	inactive: -0.106	inactive: 0.15	inactive: -0.025	inactive: 0.012	inactive: 0.082	inactive: -0.079
TSG101 (UniProt Q99816)	inactive: -0.02	inactive: -0.082	inactive: -0.157	inactive: -0.033	inactive: 0.038	inactive: -0.007	inactive: 0.053	inactive: 0.025	inactive: -0.103	inactive: 0.025
UBE2NL (UniProt Q5JXB2)	inactive: 0.063	inactive: -0.004	inactive: -0.033	inactive: -0.049	inactive: 0.099	inactive: 0	inactive: 0.095	inactive: -0.045	inactive: 0.046	inactive: 0.018
TUBA1C (UniProt Q9BQE3)	inactive: 0.02	inactive: 0.028	inactive: -0.035	inactive: 0.008	inactive: -0.024	inactive: 0.009	inactive: -0.003	inactive: -0.015	inactive: -0.005	inactive: -0.025
TTC19 (UniProt Q6DKK2)	inactive: 0.012	inactive: -0.011	inactive: -0.133	inactive: -0.071	inactive: 0.015	inactive: 0.01	inactive: 0.045	inactive: -0.011	inactive: -0.013	inactive: -0.033
TUBE1 (UniProt Q9UJT0)	inactive: 0.043	inactive: 0.024	inactive: 0.006	inactive: -0.004	inactive: 0.012	inactive: -0.045	inactive: -0.008	inactive: 0.009	inactive: 0.057	inactive: -0.04
TUBB6 (UniProt Q9BUF5)	inactive: -0.044	inactive: 0.06	inactive: -0.031	inactive: 0.009	inactive: -0.035	inactive: 0.015	inactive: 0.019	inactive: -0.063	inactive: -0.01	inactive: -0.066
TSR1 (UniProt Q2NL82)	inactive: -0.023	inactive: 0.059	inactive: 0.047	inactive: 0.057	inactive: 0.027	inactive: 0.056	inactive: 0.001	inactive: -0.05	inactive: 0.121	inactive: -0.092
TTI2 (UniProt Q6NXR4)	inactive: 0.024	inactive: -0.038	inactive: 0.016	inactive: -0.074	inactive: -0.004		inactive: -0.035	inactive: -0.047	inactive: 0.059	inactive: -0.023
TXNRD1 (UniProt Q16881)	inactive: -0.082	inactive: -0.052	inactive: -0.077	inactive: -0.007	inactive: -0.027	inactive: -0.005	inactive: 0.017	inactive: -0.036	inactive: -0.122	inactive: 0.006
TTC27 (UniProt Q6P3X3)	inactive: -0.026	inactive: -0.045	inactive: -0.108	inactive: -0.02	inactive: 0	inactive: 0.147	inactive: 0.065	inactive: 0.169	inactive: 0.155	inactive: -0.12
TXNL4B (UniProt Q9NX01)	inactive: 0.098	inactive: -0.112	inactive: -0.035	active: 0.709	inactive: -0.024	inactive: 0.02	inactive: 0.029	inactive: 0.118		inactive: 0.117
UBE2T (UniProt Q9NPD8)	inactive: -0.029	inactive: -0.006	inactive: -0.092	inactive: -0.048	inactive: 0.048	inactive: 0.011	inactive: 0.057	inactive: 0.015	inactive: -0.202	inactive: -0.026
TUBB4A (UniProt P04350)	inactive: 0.136	inactive: -0.089	inactive: -0.108	inactive: 0.047	inactive: 0.031		inactive: 0.191	inactive: -0.005	inactive: -0.065	inactive: -0.104
TXNDC9 (UniProt O14530)	inactive: 0.005	inactive: -0.017	inactive: -0.128	inactive: -0.024	inactive: 0.003	inactive: -0.003	inactive: 0.03	inactive: -0.033	inactive: -0.022	inactive: -0.009

Single records, as listed above. Order of values: log2 fold change [1]	log2 fold change [2]	log2 fold change [3]	log2 fold change [4]	log2 fold change (entinostat)	log2 fold change (vorinostat)	log2 fold change (citarinostat)	log2 fold change (silmitasertib)	log2 fold change [5]	log2 fold change [6]
TTC19 (UniProt Q6DKK2) is entered as inactive: 0.012	inactive: -0.011	inactive: -0.133	inactive: -0.071	inactive: 0.015	inactive: 0.01	inactive: 0.045	inactive: -0.011	inactive: -0.013	inactive: -0.033
TSR1 (UniProt Q2NL82) is entered as inactive: -0.023	inactive: 0.059	inactive: 0.047	inactive: 0.057	inactive: 0.027	inactive: 0.056	inactive: 0.001	inactive: -0.05	inactive: 0.121	inactive: -0.092
